Measured values as given in patent US20260159519A1, “IMIDAZOPYRIDAZINE SUBSTITUTED BENZENE RING DERIVATIVE, PREPARATION METHOD, PHARMACEUTICAL COMPOSITION AND USE” (SHANGHAI SIMR BIOTECHNOLOGY CO., LTD., priority 2022, published 2026).

Key:
[1] = test system: Chinese hamster ovary cells (CHO-WBL cells); assay: In vitro micronucleus assay; format: cell-based; conditions: 3-hour treatment with S9, 3-hour and 24-hour treatment without S9; overall judgment
[2] = molecular target: human α2-GABAA receptor (BZD site, membrane protein of HEK293 cells) (Homo sapiens, UniProt P18507+P47869); assay: Radioligand competitive binding assay (3H-flunitrazepam) at the BZD site of the α2-GABAA receptor; conditions: read-out: α2 Ki; competition with 1 nM 3H-flunitrazepam; Ki calculated from IC50

Row | Structure (SMILES) | Results of in vitro micronucleus assay [1] | Ki [2] [nM]
1 | COc1c(-c2cc(-c3cnnc4c3ncn4C(C)C)ccc2F)ccc2c1nnn2C | Negative | 3.09
2 | CCn1cnc2c(-c3ccc(F)c(-c4cc5oc(=O)n(CC)c5cc4OC)c3)cnnc21 | Negative | 3.95

The structures given here were assigned with low confidence; some may be wrong.
